Library screen at single concentrations

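Whole-cell growth test on Mycobacterium tuberculosis, read after 3 days in glucose-containing 7H9 medium; the read-out is not stated. Tested at 500 µM. Higher reads as more growth inhibition (inferred: compounds with an IC50 in retests scored well above the rest). Size under these conditions: about 18,000 compounds, about 1,400 of them at 50% or above in at least one test.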

Results are given as percent effect. The record does not define 0% and 100%; most values in the screen are far below 50% and negative numbers occur (in some assays of this library far below -100). The compounds are a random part of those screened.

Result for CC(C)COc1ccccc1NC(C)C(=O)NC(N)=O (stereo not given) was 5.812%.
Result for CCN(CC)C(=O)CN(C)S(=O)(=O)C(C)C(F)(F)F (stereo not given) was 10.49%.
Result for CC(C(=O)NC1CC1)N1CCN(S(=O)(=O)N(C)C)CC1 (stereo not given) was 4.367%.
Result for COCCN(CCC#N)S(=O)(=O)c1ncn(C)c1Cl was 6.39%.
Result for Cn1c(CCN)nc2c(F)cccc21 was 14.11%.
Result for CC(C)C(NC(=O)C1=COCCO1)c1ccccc1 (stereo not given) was 2.205%.
Result for CC(=Cc1ccccc1)CN1CCC(C(N)=O)C1 (stereo not given) was 16.58%.
Result for c1ccc(Cn2cnc(C3COCCN3)n2)cc1 (stereo not given) was 7.554%.
Result for Cc1ccc(C(=O)NC2CCN(CC(N)=O)CC2)cc1 was 9.581%.
Result for N#C[C@@H]1CN2CCC[C@H]2CO1 was 6.1%.
Result for c1ccc2c(c1)CCOC21CCNCC1 was 19.21%.
Result for CCc1ccc(S(=O)(=O)NC2(C)CCS(=O)(=O)C2)cc1 (stereo not given) was 39.47%.
Result for OC1(CNCCCn2ncc3ccccc32)CCNC1 (stereo not given) was 18.7%.
Result for CC(N)CCNS(=O)(=O)N1CCCCCC1 (stereo not given) was 7.344%.
Result for Cc1ccc(CS(=O)(=O)N2CCC(C(N)=O)CC2)cc1 was -10.83%.
Result for COCCn1cc(C(F)(F)F)ccc1=O was -9.004%.
Result for CSc1cc(CN)ccn1 was 22.86%.
Result for Cc1nc(CN2CC3(CCNCC3)CCC2=O)cs1 was 5.85%.
Result for Cc1nn(CCCN)c(C)c1Br was 65.86%.
Result for CSc1ccc(OCCN)cc1 was 35.58%.
Result for CCC(C)C(=O)Nc1nccs1 (stereo not given) was 29.42%.
Result for COCCN(C)CCNC(=O)c1ccc(Cl)cc1 was 51.78%.
Result for CCC1C(=O)NCCN1C(=O)c1cnsn1 (stereo not given) was -14.03%.
Result for O=C(NCc1ccc(-n2cccn2)cc1)NC1CC1 was 6.158%.
Result for CCN(CC)C(=O)N(C)Cc1nnc[nH]1 was -7.07%.
Result for COc1ccc(CNS(=O)(=O)c2c(N)noc2C)cc1 was 21.9%.
Result for OCc1cc(C(F)(F)F)on1 was -0.9804%.
Result for CCCC(C#N)NC(=O)c1cccc2c1OCCO2 (stereo not given) was 41.02%.
Result for Cc1cccc(C(C)(C)N)c1 was -5.164%.
Result for CN1CCC(Oc2ccc(C(N)=O)cn2)CC1 was 13.63%.
Result for CCCNC(=O)COC(=O)c1cc(OC)cc(OC)c1 was -14.61%.
Result for COc1ccc(NC(=O)Cn2ccnc2)c(OC)c1 was 32.15%.
Result for CS(=O)(=O)c1cccc(S(=O)(=O)Nc2ccccc2)c1 was 35.13%.
Result for COCCC(=O)N1CCC(Nc2ncccc2Br)CC1 was 67.3%.
Result for COc1ccc(C(=O)N2CCNCC2)c(OC)c1 was -5.936%.
Result for Cc1nn(C)c(C)c1CCC(=O)N[C@@H]1CCNC[C@H]1O was 4.817%.
Result for Cc1ccccc1N(C(=O)C(C)C)C1C=CS(=O)(=O)C1 (stereo not given) was 6.006%.
Result for O=C(CNc1cccc2c1CCCC2)N1CCNC1=O was -15.68%.
Result for Cc1cc(NC(=O)Cn2ccc(=O)n(C)c2=O)no1 was -5.023%.
Result for Cc1n[nH]c(CN2CCCC3(CCNC3)C2)c1Cl (stereo not given) was 40.42%.
Result for CC(=O)NC(C)c1cccc(N2CCCC2=O)c1 (stereo not given) was 12.39%.

Some entries from above, unchanged:

Compound	effect
Cc1ccc(C(=O)NC2CCN(CC(N)=O)CC2)cc1	9.581%
CCN(CC)C(=O)CN(C)S(=O)(=O)C(C)C(F)(F)F (stereo not given)	10.49%
CC(=Cc1ccccc1)CN1CCC(C(N)=O)C1 (stereo not given)	16.58%
CCc1ccc(S(=O)(=O)NC2(C)CCS(=O)(=O)C2)cc1 (stereo not given)	39.47%

From ChEMBL document CHEMBL3988442, “University of Dundee, Small-Polar-MMV Screening Library” (2021).